Test results: patent US20140289906A1, “Compositions Having Dicamba Decarboxylase Activity and Methods of Use” (priority 2013, published 2014)
Some of these results come from one statement about several compounds together.

B1: N61G: point mutation of SEQ ID NO:109 (protein)
chain: MAQGKVALEEHFAIPETLQDSAGFVPGDYWKELQHRLLDIQDTRLKLMDAHGIETMILSLGAPAVQAIPDRRKAIEIARRANDVLAEECAKRPDRFLAFAALPLQDPDAATEELQRCVNDLGFVGALVNGFSQEGDGQTPLYYDLPQYRPFWGEVEKLDVPFYLHPRNPLPQDSRIYDGHPWLLGPTWAFAQETAVHALRLMASGLFDEHPRLNIILGHMGEGLPYMMWRIDHRVAWVKLPPRYPAKRRFMDYFNENFHITTSGNFRTQTLIDAILEIGADRILFSTDWPFENIDHASDWFNATSIAEADRVKIGRTNARRLFKLDGA
modifications: Dicamba decarboxylase variant clone DC.4.032
B2: N61S: point mutation of SEQ ID NO:109 (protein)
chain: MAQGKVALEEHFAIPETLQDSAGFVPGDYWKELQHRLLDIQDTRLKLMDAHGIETMILSLSAPAVQAIPDRRKAIEIARRANDVLAEECAKRPDRFLAFAALPLQDPDAATEELQRCVNDLGFVGALVNGFSQEGDGQTPLYYDLPQYRPFWGEVEKLDVPFYLHPRNPLPQDSRIYDGHPWLLGPTWAFAQETAVHALRLMASGLFDEHPRLNIILGHMGEGLPYMMWRIDHRVAWVKLPPRYPAKRRFMDYFNENFHITTSGNFRTQTLIDAILEIGADRILFSTDWPFENIDHASDWFNATSIAEADRVKIGRTNARRLFKLDGA
modifications: Dicamba decarboxylase variant clone DC.4.032
B3: A64G: point mutation of SEQ ID NO:109 (protein)
chain: MAQGKVALEEHFAIPETLQDSAGFVPGDYWKELQHRLLDIQDTRLKLMDAHGIETMILSLNAPGVQAIPDRRKAIEIARRANDVLAEECAKRPDRFLAFAALPLQDPDAATEELQRCVNDLGFVGALVNGFSQEGDGQTPLYYDLPQYRPFWGEVEKLDVPFYLHPRNPLPQDSRIYDGHPWLLGPTWAFAQETAVHALRLMASGLFDEHPRLNIILGHMGEGLPYMMWRIDHRVAWVKLPPRYPAKRRFMDYFNENFHITTSGNFRTQTLIDAILEIGADRILFSTDWPFENIDHASDWFNATSIAEADRVKIGRTNARRLFKLDGA
modifications: Dicamba decarboxylase variant clone DC.4.032
B4: A64S: point mutation of SEQ ID NO:109 (protein)
chain: MAQGKVALEEHFAIPETLQDSAGFVPGDYWKELQHRLLDIQDTRLKLMDAHGIETMILSLNAPSVQAIPDRRKAIEIARRANDVLAEECAKRPDRFLAFAALPLQDPDAATEELQRCVNDLGFVGALVNGFSQEGDGQTPLYYDLPQYRPFWGEVEKLDVPFYLHPRNPLPQDSRIYDGHPWLLGPTWAFAQETAVHALRLMASGLFDEHPRLNIILGHMGEGLPYMMWRIDHRVAWVKLPPRYPAKRRFMDYFNENFHITTSGNFRTQTLIDAILEIGADRILFSTDWPFENIDHASDWFNATSIAEADRVKIGRTNARRLFKLDGA
modifications: Dicamba decarboxylase variant clone DC.4.032
B5: L240A: point mutation of SEQ ID NO:109 (protein)
chain: MAQGKVALEEHFAIPETLQDSAGFVPGDYWKELQHRLLDIQDTRLKLMDAHGIETMILSLNAPAVQAIPDRRKAIEIARRANDVLAEECAKRPDRFLAFAALPLQDPDAATEELQRCVNDLGFVGALVNGFSQEGDGQTPLYYDLPQYRPFWGEVEKLDVPFYLHPRNPLPQDSRIYDGHPWLLGPTWAFAQETAVHALRLMASGLFDEHPRLNIILGHMGEGLPYMMWRIDHRVAWVKAPPRYPAKRRFMDYFNENFHITTSGNFRTQTLIDAILEIGADRILFSTDWPFENIDHASDWFNATSIAEADRVKIGRTNARRLFKLDGA
modifications: Dicamba decarboxylase variant clone DC.4.032
B6: L240D: point mutation of SEQ ID NO:109 (protein)
chain: MAQGKVALEEHFAIPETLQDSAGFVPGDYWKELQHRLLDIQDTRLKLMDAHGIETMILSLNAPAVQAIPDRRKAIEIARRANDVLAEECAKRPDRFLAFAALPLQDPDAATEELQRCVNDLGFVGALVNGFSQEGDGQTPLYYDLPQYRPFWGEVEKLDVPFYLHPRNPLPQDSRIYDGHPWLLGPTWAFAQETAVHALRLMASGLFDEHPRLNIILGHMGEGLPYMMWRIDHRVAWVKDPPRYPAKRRFMDYFNENFHITTSGNFRTQTLIDAILEIGADRILFSTDWPFENIDHASDWFNATSIAEADRVKIGRTNARRLFKLDGA
modifications: Dicamba decarboxylase variant clone DC.4.032
B7: L240E: point mutation of SEQ ID NO:109 (protein)
chain: MAQGKVALEEHFAIPETLQDSAGFVPGDYWKELQHRLLDIQDTRLKLMDAHGIETMILSLNAPAVQAIPDRRKAIEIARRANDVLAEECAKRPDRFLAFAALPLQDPDAATEELQRCVNDLGFVGALVNGFSQEGDGQTPLYYDLPQYRPFWGEVEKLDVPFYLHPRNPLPQDSRIYDGHPWLLGPTWAFAQETAVHALRLMASGLFDEHPRLNIILGHMGEGLPYMMWRIDHRVAWVKEPPRYPAKRRFMDYFNENFHITTSGNFRTQTLIDAILEIGADRILFSTDWPFENIDHASDWFNATSIAEADRVKIGRTNARRLFKLDGA
modifications: Dicamba decarboxylase variant clone DC.4.032
B8: S298A: point mutation of SEQ ID NO:109 (protein)
chain: MAQGKVALEEHFAIPETLQDSAGFVPGDYWKELQHRLLDIQDTRLKLMDAHGIETMILSLNAPAVQAIPDRRKAIEIARRANDVLAEECAKRPDRFLAFAALPLQDPDAATEELQRCVNDLGFVGALVNGFSQEGDGQTPLYYDLPQYRPFWGEVEKLDVPFYLHPRNPLPQDSRIYDGHPWLLGPTWAFAQETAVHALRLMASGLFDEHPRLNIILGHMGEGLPYMMWRIDHRVAWVKLPPRYPAKRRFMDYFNENFHITTSGNFRTQTLIDAILEIGADRILFSTDWPFENIDHAADWFNATSIAEADRVKIGRTNARRLFKLDGA
modifications: Dicamba decarboxylase variant clone DC.4.032
B9: G27A: point mutation of SEQ ID NO:109 (protein)
chain: MAQGKVALEEHFAIPETLQDSAGFVPADYWKELQHRLLDIQDTRLKLMDAHGIETMILSLNAPAVQAIPDRRKAIEIARRANDVLAEECAKRPDRFLAFAALPLQDPDAATEELQRCVNDLGFVGALVNGFSQEGDGQTPLYYDLPQYRPFWGEVEKLDVPFYLHPRNPLPQDSRIYDGHPWLLGPTWAFAQETAVHALRLMASGLFDEHPRLNIILGHMGEGLPYMMWRIDHRVAWVKLPPRYPAKRRFMDYFNENFHITTSGNFRTQTLIDAILEIGADRILFSTDWPFENIDHASDWFNATSIAEADRVKIGRTNARRLFKLDGA
modifications: Dicamba decarboxylase variant clone DC.4.032
B10: S298T: point mutation of SEQ ID NO:109 (protein)
chain: MAQGKVALEEHFAIPETLQDSAGFVPGDYWKELQHRLLDIQDTRLKLMDAHGIETMILSLNAPAVQAIPDRRKAIEIARRANDVLAEECAKRPDRFLAFAALPLQDPDAATEELQRCVNDLGFVGALVNGFSQEGDGQTPLYYDLPQYRPFWGEVEKLDVPFYLHPRNPLPQDSRIYDGHPWLLGPTWAFAQETAVHALRLMASGLFDEHPRLNIILGHMGEGLPYMMWRIDHRVAWVKLPPRYPAKRRFMDYFNENFHITTSGNFRTQTLIDAILEIGADRILFSTDWPFENIDHATDWFNATSIAEADRVKIGRTNARRLFKLDGA
modifications: Dicamba decarboxylase variant clone DC.4.032
B11: A303E: point mutation of SEQ ID NO:109 (protein)
chain: MAQGKVALEEHFAIPETLQDSAGFVPGDYWKELQHRLLDIQDTRLKLMDAHGIETMILSLNAPAVQAIPDRRKAIEIARRANDVLAEECAKRPDRFLAFAALPLQDPDAATEELQRCVNDLGFVGALVNGFSQEGDGQTPLYYDLPQYRPFWGEVEKLDVPFYLHPRNPLPQDSRIYDGHPWLLGPTWAFAQETAVHALRLMASGLFDEHPRLNIILGHMGEGLPYMMWRIDHRVAWVKLPPRYPAKRRFMDYFNENFHITTSGNFRTQTLIDAILEIGADRILFSTDWPFENIDHASDWFNETSIAEADRVKIGRTNARRLFKLDGA
modifications: Dicamba decarboxylase variant clone DC.4.032
B12: G327Q: point mutation of SEQ ID NO:109 (protein)
chain: MAQGKVALEEHFAIPETLQDSAGFVPGDYWKELQHRLLDIQDTRLKLMDAHGIETMILSLNAPAVQAIPDRRKAIEIARRANDVLAEECAKRPDRFLAFAALPLQDPDAATEELQRCVNDLGFVGALVNGFSQEGDGQTPLYYDLPQYRPFWGEVEKLDVPFYLHPRNPLPQDSRIYDGHPWLLGPTWAFAQETAVHALRLMASGLFDEHPRLNIILGHMGEGLPYMMWRIDHRVAWVKLPPRYPAKRRFMDYFNENFHITTSGNFRTQTLIDAILEIGADRILFSTDWPFENIDHASDWFNATSIAEADRVKIGRTNARRLFKLDQA
modifications: Dicamba decarboxylase variant clone DC.4.032
B13: A328D: point mutation of SEQ ID NO:109 (protein)
chain: MAQGKVALEEHFAIPETLQDSAGFVPGDYWKELQHRLLDIQDTRLKLMDAHGIETMILSLNAPAVQAIPDRRKAIEIARRANDVLAEECAKRPDRFLAFAALPLQDPDAATEELQRCVNDLGFVGALVNGFSQEGDGQTPLYYDLPQYRPFWGEVEKLDVPFYLHPRNPLPQDSRIYDGHPWLLGPTWAFAQETAVHALRLMASGLFDEHPRLNIILGHMGEGLPYMMWRIDHRVAWVKLPPRYPAKRRFMDYFNENFHITTSGNFRTQTLIDAILEIGADRILFSTDWPFENIDHASDWFNATSIAEADRVKIGRTNARRLFKLDGD
modifications: Dicamba decarboxylase variant clone DC.4.032

Assay: Saturation mutagenesis of SEQ ID NO:109: dicamba decarboxylation activity of point mutants (Table 7)
Conditions: point mutations of SEQ ID NO:109

Molecule | dicamba decarboxylation activity compared to SEQ ID NO:109
B1 | more than 2.0 fold
B2 | more than 2.0 fold
B3 | more than 2.0 fold
B4 | more than 2.0 fold
B5 | more than 2.0 fold
B6 | more than 2.0 fold
B7 | more than 2.0 fold
B8 | more than 2.0 fold
B9 | more than 2.0 fold
B10 | more than 2.0 fold
B11 | more than 2.0 fold
B12 | more than 2.0 fold
B13 | more than 2.0 fold
